Cleaved PARP in drug-treated melanoma cells

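Human melanoma cell lines in 1,536-well plates were treated with a pair of drugs for 72 h, then fixed, stained and imaged. The read-out is the fraction of cleaved-PARP-positive nuclei, in % of that fraction in the DMSO control; 200 means twice the control level of this apoptosis marker. Every drug was used at one fixed concentration, the higher of two screened. The file gives one value for each pair and line, without errors, so small differences may be noise. Basal and induced levels differ widely between cell lines.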
This is part of the screen, not chosen by result.
An entry leaves out what has no value listed here.

Drug key:
SU6656, 2000 nM: CN(C)S(=O)(=O)c1ccc2c(c1)/C(=C/c1cc3c([nH]1)CCCC3)C(=O)N2
FK866, 50 nM: O=C(/C=C/c1cccnc1)NCCCCC1CCN(C(=O)c2ccccc2)CC1
KU-55933, 5000 nM: O=c1cc(-c2cccc3c2Sc2ccccc2S3)oc(N2CCOCC2)c1
embelin, 6000 nM: CCCCCCCCCCCC1=C(O)C(=O)C=C(O)C1=O
CHIR-265, 400 nM: Cn1c(Nc2ccc(C(F)(F)F)cc2)nc2cc(Oc3ccnc(-c4ncc(C(F)(F)F)[nH]4)c3)ccc21
NVP-TAE684, 400 nM: COc1cc(N2CCC(N3CCN(C)CC3)CC2)ccc1Nc1ncc(Cl)c(Nc2ccccc2S(=O)(=O)C(C)C)n1
perifosine, 2000 nM: CCCCCCCCCCCCCCCCCCOP(=O)([O-])OC1CC[N+](C)(C)CC1
JZL184, 5000 nM: O=C(Oc1ccc([N+](=O)[O-])cc1)N1CCC(C(O)(c2ccc3c(c2)OCO3)c2ccc3c(c2)OCO3)CC1
sorafenib, 2000 nM: CNC(=O)c1cc(Oc2ccc(NC(=O)Nc3ccc(Cl)c(C(F)(F)F)c3)cc2)ccn1

For NVP-TAE684 + CHIR-265 the values were LB2518-MEL: 247; WM1716: 119. CHIR-265 + JZL184 gave LB2518-MEL: 161; WM1716: 177. Results for perifosine + FK866 are LB2518-MEL: 392; WM1716: 14.7.

CHIR-265 + SU6656 gave LB2518-MEL: 160; WM1716: 226. For perifosine + embelin the values were LB2518-MEL: 31.1; WM1716: 40.1. With NVP-TAE684 + SU6656 the screen read LB2518-MEL: 174; WM1716: 93.3.

embelin + SU6656 gave LB2518-MEL: 67.4; WM1716: 69.1. For KU-55933 + JZL184 the values were LB2518-MEL: 172; WM1716: 96.8. FK866 + sorafenib gave LB2518-MEL: 545; WM1716: 52.7.

FK866 + CHIR-265 gave LB2518-MEL: 562; WM1716: 156. sorafenib + SU6656 gave LB2518-MEL: 69.7; WM1716: 214. KU-55933 + FK866 gave LB2518-MEL: 480; WM1716: 158.

For embelin + sorafenib the values were LB2518-MEL: 129; WM1716: 78.0. FK866 + NVP-TAE684 gave LB2518-MEL: 402; WM1716: 157. Results for CHIR-265 + perifosine are LB2518-MEL: 452; WM1716: 166.

embelin + FK866 gave LB2518-MEL: 501; WM1716: 163. Results for SU6656 + KU-55933 are LB2518-MEL: 180; WM1716: 61.4. With KU-55933 + embelin the screen read WM1716: 153.

Results for KU-55933 + perifosine are LB2518-MEL: 58.3; WM1716: 94.1. With NVP-TAE684 + KU-55933 the screen read LB2518-MEL: 411; WM1716: 215. sorafenib + KU-55933 gave LB2518-MEL: 67.7; WM1716: 62.9.

Results for NVP-TAE684 + perifosine are LB2518-MEL: 54.3; WM1716: 93.7. Results for sorafenib + perifosine are LB2518-MEL: 52.8; WM1716: 41.6. Results for SU6656 + perifosine are LB2518-MEL: 286; WM1716: 254.

For sorafenib + JZL184 the values were LB2518-MEL: 167; WM1716: 62.4. For NVP-TAE684 + embelin the values were LB2518-MEL: 70.0; WM1716: 62.7. Results for NVP-TAE684 + JZL184 are LB2518-MEL: 87.7; WM1716: 139.

For embelin + JZL184 the values were LB2518-MEL: 65.3; WM1716: 91.8. For embelin + CHIR-265 the values were LB2518-MEL: 191; WM1716: 88.4. sorafenib + CHIR-265 gave LB2518-MEL: 235; WM1716: 112.

FK866 + SU6656 gave LB2518-MEL: 86.3; WM1716: 68.9.

3 of the entries, repeated:

{"pair": "sorafenib + SU6656", "LB2518-MEL": 69.7, "WM1716": 214}
{"pair": "sorafenib + JZL184", "LB2518-MEL": 167, "WM1716": 62.4}
{"pair": "CHIR-265 + SU6656", "LB2518-MEL": 160, "WM1716": 226}

Data from the primary screen of doi:10.1371/journal.pone.0140310, rounded.